These are yes or no findings as the source states them, for the method shown. Some entries that bind do so weakly or less than the wild type.
Biological target: GST-RIα fusion protein (wild-type RIα), expressed in E. coli (UniProt P10644)
Test: GST pull down of [35S]methionine labeled RIAZ, SDS-PAGE and autoradiography

The chains behind the UniProt entries cited, without tags or fusion partners.
UniProt P10644: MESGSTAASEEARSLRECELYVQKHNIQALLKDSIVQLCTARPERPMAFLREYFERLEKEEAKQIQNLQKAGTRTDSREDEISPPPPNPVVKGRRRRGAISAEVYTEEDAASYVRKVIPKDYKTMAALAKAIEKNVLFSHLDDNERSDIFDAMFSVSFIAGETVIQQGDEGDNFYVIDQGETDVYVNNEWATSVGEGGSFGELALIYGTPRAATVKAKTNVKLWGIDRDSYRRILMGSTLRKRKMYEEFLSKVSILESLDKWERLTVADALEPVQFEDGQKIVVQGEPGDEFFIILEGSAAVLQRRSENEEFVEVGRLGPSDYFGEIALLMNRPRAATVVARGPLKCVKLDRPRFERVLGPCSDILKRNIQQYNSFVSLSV

B1: RIα-associated zinc finger (RIAZ), in vitro-translated full length protein (protein)
chain: MERVNDASCGPSGCYTYQVSRHSTEMLHNLNQQRKNGGRFCDVLLRVGDESFPAHRAVLAACSEYFESVFSAQLGDGGAADGGPADVGGATAAPGGGAGGSRELEMHTISSKVFGDILDFAYTSRIVVRLESFPELMTAAKFLLMRSVIEICQEVIKQSNVQILVPPARADIMLFRPPGTSDLGFPLDMTNGAALAANSNGIAGSMQPEEEAARAAGAAIAGQASLPVLPGVDRLPMVAGPLSPQLLTSPFPSVASSAPPLTGKRGRGRPRKANLLDSMFGSPGGLREAGILPCGLCGKVFTDANRLRQHEAQHGVTSLQLGYIDLPPPRLGENGLPISEDPDGPRKRSRTRKQVACEICGKIFRDVYHLNRHKLSHSGEKPYSCPVCGLRFKRKDRMSYHVRSHDGSVGKPYICQSCGKGFSRPDHLNGHIKQVHTSERPHKCQTCNASFATRDRLRSHLACHEDKVPCQVCGKYLRAAYMADHLKKHSEGPSNFCSICNREGQKCSHQDPIESSDSYGDLSDASDLKTPEKQSANGSFSCDMAVPKNKMESDGEKKYPCPECGSFFRSKSYLNKHIQKVHVRALGGPLGDLGPALGSPFSPQQNMSLLESFGFQIVQSAFASSLVDPEVDQQPMGPEGK
modifications: [35S]methionine labeled
binding: binds
